# Reference: patent US6350430B1 (Lion Bioscience Science AG, priority 1997, dated 2002)
# Strings that start with PEPTIDE1 are HELM notation: dots part the residues, brackets hold end groups and non-standard residues.
# Assay: Boc solid-phase peptide synthesis; MBHA; 0.2 M HOBt and 0.2 M DIC
# Conditions: whole synthesis, scale of the general procedure 100 mg MBHA resin
substance,measurement,value
PEPTIDE1{[ac].[Nle].Q.H.[pI-D-Phe].R.[dW].G.[am]}$$$$V2.0,purity (crude or final not stated),approximately 80 to 90% pure
